Measurements as given in PMC6548132, “Engineered SUMO/protease system identifies Pdr6 as a bidirectional nuclear transport receptor” (The Journal of Cell Biology, 2019).
Results are given in words; binding and its absence hold for the method and conditions named. Binding seen in cells or lysates may run through a third protein. These calls come from enrichment with a bait or labelling near it, and not all partners need be listed. Where a sequence is shown, tags or fusion partners need not be part of it.

T1: ED-SUMO^Eu1-His12–tagged Pdr6 (S. cerevisiae) (UniProt P32767)
T1 sequence: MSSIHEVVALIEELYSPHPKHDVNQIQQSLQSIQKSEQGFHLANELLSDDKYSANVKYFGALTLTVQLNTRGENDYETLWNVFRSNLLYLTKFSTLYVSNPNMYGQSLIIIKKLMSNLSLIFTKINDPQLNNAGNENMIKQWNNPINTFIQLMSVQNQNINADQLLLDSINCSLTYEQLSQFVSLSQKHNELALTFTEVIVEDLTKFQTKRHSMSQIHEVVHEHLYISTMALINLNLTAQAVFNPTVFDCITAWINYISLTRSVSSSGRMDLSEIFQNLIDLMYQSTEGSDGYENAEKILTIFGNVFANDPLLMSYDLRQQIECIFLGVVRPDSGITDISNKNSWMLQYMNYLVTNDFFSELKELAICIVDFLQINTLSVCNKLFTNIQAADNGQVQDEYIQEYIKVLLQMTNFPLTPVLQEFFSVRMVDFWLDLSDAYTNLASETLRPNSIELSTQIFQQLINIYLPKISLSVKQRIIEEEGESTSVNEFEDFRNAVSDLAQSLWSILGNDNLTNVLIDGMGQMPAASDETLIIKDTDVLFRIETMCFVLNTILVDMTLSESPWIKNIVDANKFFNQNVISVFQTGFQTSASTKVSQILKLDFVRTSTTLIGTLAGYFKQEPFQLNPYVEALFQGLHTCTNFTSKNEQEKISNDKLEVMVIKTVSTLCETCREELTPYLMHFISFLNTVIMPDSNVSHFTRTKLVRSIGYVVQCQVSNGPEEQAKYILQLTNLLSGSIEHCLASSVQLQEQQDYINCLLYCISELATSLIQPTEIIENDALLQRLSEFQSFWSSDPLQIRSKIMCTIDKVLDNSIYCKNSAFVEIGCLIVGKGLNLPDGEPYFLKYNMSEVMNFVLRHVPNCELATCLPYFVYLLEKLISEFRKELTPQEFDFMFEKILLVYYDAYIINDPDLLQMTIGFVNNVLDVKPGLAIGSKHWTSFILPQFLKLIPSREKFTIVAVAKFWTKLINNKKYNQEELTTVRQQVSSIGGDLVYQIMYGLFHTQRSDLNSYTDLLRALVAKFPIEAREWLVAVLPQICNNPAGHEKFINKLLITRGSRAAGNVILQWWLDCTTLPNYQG

B1: Toa1 (endogenous, yeast extract) (protein, UniProt P32773 1-286)
chain: MSNAEASRVYEIIVESVVNEVREDFENAGIDEQTLQDLKNIWQKKLTETKVTTFSWDNQFNEGNINGVQNDLNFNLATPGVNSSEFNIKEENTGNEGLILPNINSNNNIPHSGETNINTNTVEATNNSGATLNTNTSGNTNADVTSQPKIEVKPEIELTINNANITTVENIDDESEKKDDEEKEEDVEKTRKEKEQIEQVKLQAKKEKRSALLDTDEVGSELDDSDDDYLISEGEEDGPDENLMLCLYDKVTRTKARWKCSLKDGVVTINRNDYTFQKAQVEAEWV
B2: Wtm1 (endogenous, yeast extract) (protein, UniProt Q12363 1-437)
chain: MPKKVWKSSTPSTYEHISSLRPKFVSRVDNVLHQRKSLTFSNVVVPDKKNNTLTSSVIYSQGSDIYEIDFAVPLQEAASEPVKDYGDAFEGIENTSLSPKFVYQGETVSKMAYLDKTGETTLLSMSKNGSLAWFKEGIKVPIHIVQELMGPATSYASIHSLTRPGDLPEKDFSLAISDFGISNDTETIVKSQSNGDEEDSILKIIDNAGKPGEILRTVHVPGTTVTHTVRFFDNHIFASCSDDNILRFWDTRTSDKPIWVLGEPKNGKLTSFDCSQVSNNLFVTGFSTGIIKLWDARAAEAATTDLTYRQNGEDPIQNEIANFYHAGGDSVVDVQFSATSSSEFFTVGGTGNIYHWNTDYSLSKYNPDDTIAPPQDATEESQTKSLRFLHKGGSRRSPKQIGRRNTAAWHPVIENLVGTVDDDSLVSIYKPYTEESE
B3: H14-ZZ-NEDD8–tagged Ubc9 (enzyme, yeast (S. cerevisiae), UniProt P50623 1-157, looked up)
chain: MSSLCLQRLQEERKKWRKDHPFGFYAKPVKKADGSMDLQKWEAGIPGKEGTNWAGGVYPITVEYPNEYPSKPPKVKFPAGFYHPNVYPSGTICLSILNEDQDWRPAITLKQIVLGVQDLLDSPNPNSPAQEPAWRSFSRNKAEYDKKVLLQAKQYSK
notes: Ubc9, SUMO-conjugating E2 enzyme of yeast; Tag is cut by NEDP1 only at elution; also called immobilized Ubc9; source: E. coli NEB express, purified (Ni2+ chelate beads)

target: T1, ED-SUMO^Eu1-His12–tagged Pdr6 (S. cerevisiae); experiment: affinity purification with mass spectrometry; 0.5 µM ED-SUMO^Eu1-His12-Pdr6 as bait in yeast cell extract (GK75 buffer) without RanGTP; anti-ZZ/ED affibody beads 1 h at 4°C, elution by SENP^EuB cleavage, recapture on Ni2+ chelate beads, cargo release with 3 M guanidinium-HCl; SDS-PAGE/Coomassie, excised bands identified by LC-MS; only the target purified

binding | Binder
binds | B1
binds | B2
binds | B3
